Measurements reported in US12049583B2, “Compound, composition for anisotropic dye films including the compound, anisotropic dye film, and optical element” (Mitsubishi Chemical Corporation, priority 2020, dated 2024).

Experiment: Dichroic ratio of anisotropic dye film (polarized light transmittance, D=Az/Ay)
Details: anisotropic dye film of the dye in polymerizable liquid crystal compound I-1, sandwich cell gap 8.0 μm, 40 °C, at wavelength of local maximum dichroic ratio in 350 to 800 nm
Procedure: The transmittance of light polarized in the direction of the absorption axis/polarizing axis through the anisotropic dye film prepared was measured using a spectrophotometer (Product name: “RETS-100” produced by Otsuka Electronics Co., Ltd.) equipped with a Glan-Thompson polarizer.
Linearly polarized light was incident on the anisotropic dye film as measurement light. The transmittance of light polarized in the direction of absorption axis through the anisotropic dye film and the transmittance of light polarized in the direction of polarizing axis through the anisotropic dye film were measured. A dichroic ratio (D) was calculated using the following formula. D=Az/Ay • (in the above formula, • Ay=−log(Ty); • Az=−log(Tz); • where Tz represents the transmittance of light polarized in the direction of absorption axis through the anisotropic dye film; and • Ty represents the transmittance of light polarized in the direction of polarizing axis through the anisotropic dye film)
Specifically, into a sandwich cell including a glass substrate and a polyimide alignment film (LX1400, produced by HD MicroSystems, Ltd.) disposed thereon (cell gap: 8.0 μm, 10.0 μm, prepared by subjecting a polyimide film to a rubbing treatment with a cloth), the composition for anisotropic dye films was injected in an isotropic phase. Subsequently, cooling was performed to 80° C. at 5° C./min. Hereby, an anisotropic dye film was prepared. Then, while the temperature was reduced to 0° C. at 5° C./min, the dichroic ratio was measured at predetermined temperatures. The dichroic ratio at the temperature and wavelength at which the maximum dichroic ratio was measured was determined as the dichroic ratio of the anisotropic dye film. In addition, at the above temperature, the dichroic ratio at the wavelength at which the absorbance of the anisotropic dye film in the quadrature direction (absorption axis direction) was a local maximum (the dichroic ratio at the wavelength at which the absorbance of the film was a local maximum) was also measured.

| SMILES | Dichroic ratio at the above wavelength |
| --- | --- |
| CCN(CC)c1ccc(/N=N/c2ccc(/N=N/c3nc4sc(CCC(C)CC(C)(C)C)cc4s3)cc2)cc1 (stereo not drawn) [II-1] | 42.4 |
| CCN(CC)c1ccc(/N=N/c2ccc(/N=N/c3sc(C)cc3C#N)cc2)cc1 [IV-3] | 20.5 |
| CCCCSc1nnc(/N=N/c2ccc(/N=N/c3ccc(N(CC)CC)cc3)cc2)s1 [IV-2] | 44.0 |
| CCN(CC)c1ccc(/N=N/c2nc3sc(/N=N/c4ccc(OCCC(C)CC(C)(C)C)cc4)cc3s2)cc1 (stereo not drawn) [II-3] | 47 |
| CCN(CC)c1ccc(/N=N/c2ccc(/N=N/c3nc4sc(CCC(C)C)cc4s3)cc2)cc1 [II-2] | 41 |
| CCN(CC)c1ccc(/N=N/c2ccc(/N=N/c3cc(C)ns3)cc2)cc1 [IV-4] | 41.4 |
